From paper PMC12196469 (Pharmaceutics, 2025)

Experiment: general procedure: Fmoc solid-phase peptide synthesis; H-His(Trt)-2-Cl-Trt Resin; HATU/DIPEA
Details: whole synthesis

Substance: N3-PEG4-Cys-PEG3-HAIYPRH
- crude yield: 48%
